# Results published in the supplement of paper PMC10849652.
# Sequences of proteins named here, by UniProt entry; tags and fusion partners are left off. A change or cut given only in a name is not applied to a line headed by its entry.
# UniProt Q5VTL8: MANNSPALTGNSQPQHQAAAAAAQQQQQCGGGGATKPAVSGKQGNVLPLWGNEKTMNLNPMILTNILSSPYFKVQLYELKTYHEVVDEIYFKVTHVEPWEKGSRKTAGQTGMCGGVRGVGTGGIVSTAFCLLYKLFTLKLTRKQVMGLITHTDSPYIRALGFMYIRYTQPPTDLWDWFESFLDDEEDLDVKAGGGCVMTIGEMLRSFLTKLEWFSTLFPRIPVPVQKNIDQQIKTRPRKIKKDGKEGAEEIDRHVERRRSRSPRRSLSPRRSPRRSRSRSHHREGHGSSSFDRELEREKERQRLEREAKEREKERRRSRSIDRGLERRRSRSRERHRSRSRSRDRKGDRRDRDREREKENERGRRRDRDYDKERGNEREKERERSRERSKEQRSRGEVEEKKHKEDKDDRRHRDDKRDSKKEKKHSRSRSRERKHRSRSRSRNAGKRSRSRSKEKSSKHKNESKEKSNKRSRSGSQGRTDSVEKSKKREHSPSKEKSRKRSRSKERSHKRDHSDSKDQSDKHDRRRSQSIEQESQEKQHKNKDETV
# UniProt P10644, whole entry, looked up: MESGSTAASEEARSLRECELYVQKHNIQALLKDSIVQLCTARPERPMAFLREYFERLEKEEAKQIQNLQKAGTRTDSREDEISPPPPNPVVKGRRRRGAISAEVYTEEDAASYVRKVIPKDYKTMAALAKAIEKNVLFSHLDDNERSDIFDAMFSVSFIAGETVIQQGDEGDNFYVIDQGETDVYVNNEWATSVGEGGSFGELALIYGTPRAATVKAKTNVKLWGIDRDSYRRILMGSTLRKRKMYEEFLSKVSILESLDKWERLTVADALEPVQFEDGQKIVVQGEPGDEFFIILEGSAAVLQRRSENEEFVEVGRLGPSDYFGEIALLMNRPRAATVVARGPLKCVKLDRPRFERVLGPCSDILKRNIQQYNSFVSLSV
# UniProt Q9NVM4: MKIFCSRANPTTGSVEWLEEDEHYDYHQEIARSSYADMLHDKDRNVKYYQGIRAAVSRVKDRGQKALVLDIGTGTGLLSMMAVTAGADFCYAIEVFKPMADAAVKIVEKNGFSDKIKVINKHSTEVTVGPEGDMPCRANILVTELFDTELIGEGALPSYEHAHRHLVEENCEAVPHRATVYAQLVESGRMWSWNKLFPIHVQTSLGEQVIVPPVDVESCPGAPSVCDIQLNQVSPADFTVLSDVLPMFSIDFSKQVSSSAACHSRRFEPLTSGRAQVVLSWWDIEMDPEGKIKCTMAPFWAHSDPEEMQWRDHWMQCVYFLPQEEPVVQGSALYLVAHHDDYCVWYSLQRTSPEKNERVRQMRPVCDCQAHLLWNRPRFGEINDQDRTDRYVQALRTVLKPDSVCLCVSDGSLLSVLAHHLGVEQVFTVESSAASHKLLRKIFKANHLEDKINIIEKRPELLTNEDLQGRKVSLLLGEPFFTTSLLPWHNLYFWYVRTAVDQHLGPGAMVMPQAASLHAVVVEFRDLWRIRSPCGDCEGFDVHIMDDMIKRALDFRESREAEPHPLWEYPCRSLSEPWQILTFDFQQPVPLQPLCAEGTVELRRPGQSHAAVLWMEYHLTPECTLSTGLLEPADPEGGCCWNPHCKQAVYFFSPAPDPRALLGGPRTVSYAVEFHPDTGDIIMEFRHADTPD
# UniProt P05771, whole entry, looked up: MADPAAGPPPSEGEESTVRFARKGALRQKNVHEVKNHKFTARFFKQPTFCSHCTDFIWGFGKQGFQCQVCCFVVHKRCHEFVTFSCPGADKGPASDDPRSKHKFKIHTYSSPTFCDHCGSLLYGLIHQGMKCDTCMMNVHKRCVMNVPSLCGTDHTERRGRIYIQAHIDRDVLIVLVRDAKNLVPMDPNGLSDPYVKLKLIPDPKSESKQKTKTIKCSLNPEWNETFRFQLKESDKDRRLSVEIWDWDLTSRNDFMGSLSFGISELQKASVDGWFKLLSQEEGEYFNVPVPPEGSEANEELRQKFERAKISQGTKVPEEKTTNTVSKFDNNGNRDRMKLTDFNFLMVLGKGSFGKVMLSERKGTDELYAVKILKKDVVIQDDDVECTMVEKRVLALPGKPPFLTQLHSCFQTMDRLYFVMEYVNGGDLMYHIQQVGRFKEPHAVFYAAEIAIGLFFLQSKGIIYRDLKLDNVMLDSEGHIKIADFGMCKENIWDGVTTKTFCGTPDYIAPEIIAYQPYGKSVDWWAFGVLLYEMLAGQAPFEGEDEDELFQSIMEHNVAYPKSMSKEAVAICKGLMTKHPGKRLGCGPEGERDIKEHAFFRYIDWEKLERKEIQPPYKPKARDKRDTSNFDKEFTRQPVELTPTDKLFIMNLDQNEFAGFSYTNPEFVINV
# UniProt Q9Y478: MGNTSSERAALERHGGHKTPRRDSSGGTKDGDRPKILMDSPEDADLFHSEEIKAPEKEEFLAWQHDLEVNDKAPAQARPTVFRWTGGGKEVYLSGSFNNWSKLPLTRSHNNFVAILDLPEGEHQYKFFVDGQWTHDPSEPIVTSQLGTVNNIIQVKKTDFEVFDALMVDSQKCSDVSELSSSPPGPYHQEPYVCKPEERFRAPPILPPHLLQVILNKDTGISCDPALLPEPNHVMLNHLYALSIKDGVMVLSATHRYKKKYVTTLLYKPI
# UniProt O60678: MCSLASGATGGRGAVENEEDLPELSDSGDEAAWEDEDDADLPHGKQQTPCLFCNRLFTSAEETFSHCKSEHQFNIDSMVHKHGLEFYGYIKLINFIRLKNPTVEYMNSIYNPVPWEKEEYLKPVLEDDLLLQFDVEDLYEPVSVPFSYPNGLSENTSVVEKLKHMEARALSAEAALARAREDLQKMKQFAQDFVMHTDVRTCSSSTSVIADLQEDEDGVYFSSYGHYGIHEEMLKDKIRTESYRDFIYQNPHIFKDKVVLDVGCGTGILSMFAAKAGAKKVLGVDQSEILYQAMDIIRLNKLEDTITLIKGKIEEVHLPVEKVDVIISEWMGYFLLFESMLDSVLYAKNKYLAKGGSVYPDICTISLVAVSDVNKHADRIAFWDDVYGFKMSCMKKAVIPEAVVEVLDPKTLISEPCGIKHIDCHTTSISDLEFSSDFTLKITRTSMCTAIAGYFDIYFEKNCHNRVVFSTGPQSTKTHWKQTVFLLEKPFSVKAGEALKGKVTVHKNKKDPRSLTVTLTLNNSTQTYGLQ
# UniProt P42785: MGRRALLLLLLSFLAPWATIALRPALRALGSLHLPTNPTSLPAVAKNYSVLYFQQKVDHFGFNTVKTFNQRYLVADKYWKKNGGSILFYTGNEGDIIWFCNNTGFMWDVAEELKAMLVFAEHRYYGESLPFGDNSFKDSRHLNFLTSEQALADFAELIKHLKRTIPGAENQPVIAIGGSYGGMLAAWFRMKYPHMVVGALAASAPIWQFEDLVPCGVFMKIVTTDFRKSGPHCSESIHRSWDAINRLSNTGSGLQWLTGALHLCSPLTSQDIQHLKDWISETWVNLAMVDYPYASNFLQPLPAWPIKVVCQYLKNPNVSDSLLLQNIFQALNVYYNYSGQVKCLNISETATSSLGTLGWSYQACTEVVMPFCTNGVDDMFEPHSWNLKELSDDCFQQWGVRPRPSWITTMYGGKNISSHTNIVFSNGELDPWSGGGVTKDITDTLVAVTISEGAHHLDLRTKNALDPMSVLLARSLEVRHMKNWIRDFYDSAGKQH
# UniProt O14744, whole entry, looked up: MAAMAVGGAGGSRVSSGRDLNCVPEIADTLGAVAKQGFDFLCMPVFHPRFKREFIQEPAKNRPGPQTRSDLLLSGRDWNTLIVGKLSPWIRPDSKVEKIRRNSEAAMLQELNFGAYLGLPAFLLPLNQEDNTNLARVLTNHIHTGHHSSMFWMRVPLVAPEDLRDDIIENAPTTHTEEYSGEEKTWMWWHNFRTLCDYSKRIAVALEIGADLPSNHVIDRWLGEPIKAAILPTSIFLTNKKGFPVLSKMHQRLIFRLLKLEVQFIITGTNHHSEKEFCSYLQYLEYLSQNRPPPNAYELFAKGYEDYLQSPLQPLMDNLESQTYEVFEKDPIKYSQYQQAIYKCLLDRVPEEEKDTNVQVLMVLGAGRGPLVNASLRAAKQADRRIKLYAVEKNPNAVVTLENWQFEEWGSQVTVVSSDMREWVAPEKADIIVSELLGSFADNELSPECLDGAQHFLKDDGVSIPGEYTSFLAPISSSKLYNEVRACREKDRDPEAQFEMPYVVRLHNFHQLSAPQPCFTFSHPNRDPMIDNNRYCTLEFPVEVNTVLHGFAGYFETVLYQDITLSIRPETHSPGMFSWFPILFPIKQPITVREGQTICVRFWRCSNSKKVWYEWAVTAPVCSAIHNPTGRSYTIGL
# UniProt Q96A00: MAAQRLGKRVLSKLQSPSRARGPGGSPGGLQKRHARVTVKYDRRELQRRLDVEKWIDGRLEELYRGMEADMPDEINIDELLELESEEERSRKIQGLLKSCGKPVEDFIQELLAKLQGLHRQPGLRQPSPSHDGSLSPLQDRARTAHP
# UniProt Q8WWY3: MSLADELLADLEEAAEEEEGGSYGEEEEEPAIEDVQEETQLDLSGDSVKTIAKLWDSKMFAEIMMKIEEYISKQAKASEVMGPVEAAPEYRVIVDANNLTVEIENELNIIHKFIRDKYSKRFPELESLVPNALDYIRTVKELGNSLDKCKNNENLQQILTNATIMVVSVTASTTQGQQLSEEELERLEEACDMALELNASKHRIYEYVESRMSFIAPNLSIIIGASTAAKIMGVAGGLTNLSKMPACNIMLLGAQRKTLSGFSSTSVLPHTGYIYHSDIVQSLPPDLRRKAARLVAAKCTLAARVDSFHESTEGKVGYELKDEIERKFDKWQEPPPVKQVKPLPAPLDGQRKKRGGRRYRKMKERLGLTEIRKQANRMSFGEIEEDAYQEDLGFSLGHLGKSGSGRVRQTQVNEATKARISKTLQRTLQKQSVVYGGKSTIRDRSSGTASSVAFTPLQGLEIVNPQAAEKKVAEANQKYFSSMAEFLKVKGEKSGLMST
# UniProt Q05655: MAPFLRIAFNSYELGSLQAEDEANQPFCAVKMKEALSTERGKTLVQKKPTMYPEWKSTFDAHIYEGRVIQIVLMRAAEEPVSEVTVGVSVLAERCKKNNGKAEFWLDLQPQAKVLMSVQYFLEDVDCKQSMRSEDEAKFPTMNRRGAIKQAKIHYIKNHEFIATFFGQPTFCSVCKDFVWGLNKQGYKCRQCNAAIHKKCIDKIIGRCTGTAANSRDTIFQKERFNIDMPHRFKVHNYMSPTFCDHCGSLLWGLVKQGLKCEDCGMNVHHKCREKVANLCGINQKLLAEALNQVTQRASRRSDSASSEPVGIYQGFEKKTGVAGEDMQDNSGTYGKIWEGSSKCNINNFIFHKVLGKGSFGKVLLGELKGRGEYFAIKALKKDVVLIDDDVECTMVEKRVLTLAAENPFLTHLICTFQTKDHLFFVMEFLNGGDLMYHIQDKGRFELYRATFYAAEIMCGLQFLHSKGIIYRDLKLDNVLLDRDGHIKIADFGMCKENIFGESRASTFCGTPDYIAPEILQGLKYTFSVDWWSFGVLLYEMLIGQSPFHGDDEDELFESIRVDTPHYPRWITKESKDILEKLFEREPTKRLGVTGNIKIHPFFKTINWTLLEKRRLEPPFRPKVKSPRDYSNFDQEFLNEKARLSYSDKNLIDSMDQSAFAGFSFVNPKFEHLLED
# The list shows a part of the results.
# Legend:
# Test in all cases: log2 fold change, soluble protein after heating vs DMSO (PISA); higher = thermal stabilisation; K562 cells, 10 uM, 30 min; active = over 0.2 and 3.5 SD of the protein, either way, in both replicates (recomputed)
# [1] = compound: COC1=CC=C(C=C1)CN2C=CC3=C2C=C(C=C3)C(=O)NO
# In short: (§1)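 Aliquots of K562 cells (2×10^6 cells/mL) treated with 10 μM compound for 30 min were heated for 3 min over 48°C-58°C. After pooling and extraction in PBS with 0.5% NP-40 at 4°C, soluble protein from a 21,000xg, 90 min spin was quantified by TMTpro 16plex LC-MS/MS with channel sums equalised. Thermal stability is expressed against control samples, from duplicates, as a log2 fold change.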
# filanesib = compound: CON(C)C(=O)N1N=C(c2cc(F)ccc2F)S[C@@]1(CCCN)c1ccccc1 [filanesib]
# In short: as §1
# zotarolimus = compound: CO[C@H]1C[C@@H]2CC[C@@H](C)[C@@](O)(O2)C(=O)C(=O)N2CCCC[C@H]2C(=O)O[C@H]([C@H](C)C[C@@H]2CC[C@H](n3cnnn3)[C@H](OC)C2)CC(=O)[C@H](C)/C=C(\C)[C@@H](O)[C@@H](OC)C(=O)[C@H](C)C[C@H](C)/C=C/C=C/C=C/1C [zotarolimus]
# In short: as §1
# idasanutlin = compound: COc1cc(C(=O)O)ccc1NC(=O)[C@@H]1N[C@@H](CC(C)(C)C)[C@](C#N)(c2ccc(Cl)cc2F)[C@H]1c1cccc(Cl)c1F [idasanutlin]
# In short: as §1
# alisertib = compound: COc1cc(Nc2ncc3c(n2)-c2ccc(Cl)cc2C(c2c(F)cccc2OC)=NC3)ccc1C(=O)O [alisertib]
# In short: as §1
# [2] = compound: COc1cc2nc(-c3cc(F)ccc3O)nc(N[C@@H]3CNC[C@H]3C(C)(C)O)c2cc1OC
# In short: as §1
# gefitinib = compound: COc1cc2ncnc(Nc3ccc(F)c(Cl)c3)c2cc1OCCCN1CCOCC1 [gefitinib]
# In short: as §1
# [3] = compound: COc1cccc2cc(-c3nc([C@H]4CC[C@H](C(=O)O)CC4)n4ncnc(N)c34)[nH]c12
# In short: as §1
# lapatinib = compound: CS(=O)(=O)CCNCc1ccc(-c2ccc3ncnc(Nc4ccc(OCc5cccc(F)c5)c(Cl)c4)c3c2)o1 [lapatinib]
# In short: as §1
# pictilisib = compound: CS(=O)(=O)N1CCN(Cc2cc3nc(-c4cccc5[nH]ncc45)nc(N4CCOCC4)c3s2)CC1 [pictilisib]
# In short: as §1
# [4] = compound: CS(=O)(=O)c1ccc(-c2cnc(N)c(C(=O)Nc3ccccc3)n2)cc1
# In short: as §1
# crizotinib = compound: C[C@@H](Oc1cc(-c2cnn(C3CCNCC3)c2)cnc1N)c1c(Cl)ccc(F)c1Cl [crizotinib]
# In short: as §1
# [5] = compound: C[C@@H]1COCCN1C2=NC(=NC(=C2)C3(CC3)S(=O)(=O)C)C4=C5C=CNC5=CC=C4
# In short: as §1
# [6] = compound: C[C@H](C1=CC=C(C=C1)C(=O)NC2=C3C=CNC3=NC=C2)N
# In short: as §1
# gandotinib = compound: Cc1cc(Nc2cc(CN3CCOCC3)c3nc(C)c(Cc4ccc(Cl)cc4F)n3n2)n[nH]1 [gandotinib]
# In short: as §1
# [7] = compound: Cc1cc(SCc2sc(-c3ccc(C(F)(F)F)cc3)nc2C)ccc1OCC(=O)O
# In short: as §1
# doramapimod = compound: Cc1ccc(-n2nc(C(C)(C)C)cc2NC(=O)Nc2ccc(OCCN3CCOCC3)c3ccccc23)cc1 [doramapimod]
# In short: as §1
# ispinesib = compound: Cc1ccc(C(=O)N(CCCN)[C@@H](c2nc3cc(Cl)ccc3c(=O)n2Cc2ccccc2)C(C)C)cc1 [ispinesib]
# In short: as §1
# duvelisib = compound: C[C@H](Nc1ncnc2nc[nH]c12)c1cc2cccc(Cl)c2c(=O)n1-c1ccccc1 [duvelisib]
# In short: as §1
# tozasertib = compound: Cc1cc(Nc2cc(N3CCN(C)CC3)nc(Sc3ccc(NC(=O)C4CC4)cc3)n2)n[nH]1 [tozasertib]
# In short: as §1
Target,log2 fold change [1],log2 fold change (filanesib),log2 fold change (zotarolimus),log2 fold change (idasanutlin),log2 fold change (alisertib),log2 fold change [2],log2 fold change (gefitinib),log2 fold change [3],log2 fold change (lapatinib),log2 fold change (pictilisib),log2 fold change [4],log2 fold change (crizotinib),log2 fold change [5],log2 fold change [6],log2 fold change (gandotinib),log2 fold change [7],log2 fold change (doramapimod),log2 fold change (ispinesib),log2 fold change (duvelisib),log2 fold change (tozasertib)
PRPF38B (UniProt Q5VTL8),inactive: -0.004,inactive: 0.163,inactive: 0.016,inactive: 0.039,inactive: -0.09,inactive: 0.083,inactive: 0.002,inactive: 0.043,inactive: 0.027,inactive: 0.065,inactive: -0.051,inactive: -0.026,inactive: 0.058,active: -0.269,inactive: 0.001,inactive: -0.002,inactive: 0.005,inactive: 0.193,,
PRKAR1A (UniProt P10644),inactive: 0.079,inactive: 0.042,inactive: 0.046,inactive: -0.045,inactive: -0.075,inactive: 0.131,inactive: 0.046,inactive: -0.132,inactive: 0,inactive: 0.206,inactive: 0.209,inactive: 0.259,inactive: 0.03,inactive: 0.173,inactive: 0.139,inactive: 0.001,inactive: 0,inactive: -0.06,,
PRMT7 (UniProt Q9NVM4),inactive: -0.174,inactive: -0.072,inactive: -0.008,inactive: -0.004,inactive: -0.073,inactive: -0.037,inactive: 0.05,inactive: -0.018,inactive: 0.026,inactive: -0.009,inactive: 0.063,inactive: -0.142,inactive: 0.075,inactive: 0.083,inactive: 0.067,inactive: 0.12,inactive: 0.038,inactive: 0.065,,
PPP2R5C isoform 5 (UniProt Q13362),inactive: 0.022,inactive: -0.126,inactive: 0.031,inactive: -0.137,inactive: -0.11,inactive: 0.082,inactive: -0.018,inactive: -0.012,inactive: 0,inactive: 0.111,inactive: -0.054,inactive: -0.071,inactive: 0.023,inactive: -0.05,inactive: -0.024,inactive: 0.069,inactive: -0.043,inactive: 0.007,,
PRKCB isoform 2 (UniProt P05771),inactive: -0.011,inactive: -0.022,inactive: 0.046,inactive: -0.028,inactive: -0.051,inactive: 0.035,inactive: 0.001,inactive: -0.036,inactive: -0.008,inactive: 0.035,inactive: 0.019,inactive: -0.039,inactive: 0.039,inactive: -0.063,inactive: -0.079,inactive: 0.032,inactive: -0.01,inactive: -0.017,,
PRKCE (UniProt Q02156),inactive: -0.024,inactive: -0.082,inactive: 0,inactive: -0.085,inactive: -0.078,inactive: 0.012,inactive: 0.029,inactive: -0.104,inactive: 0.025,inactive: 0.099,inactive: 0.051,inactive: -0.071,inactive: 0.083,inactive: -0.168,inactive: -0.092,inactive: 0.055,inactive: -0.003,,,
PRPF4 (UniProt O43172),inactive: 0.063,inactive: 0.013,inactive: 0.026,inactive: -0.038,inactive: -0.029,inactive: -0.067,inactive: 0.002,inactive: -0.027,inactive: 0.029,inactive: -0.004,inactive: -0.014,inactive: -0.04,inactive: 0.044,inactive: -0.02,inactive: -0.052,inactive: 0.029,inactive: -0.035,inactive: 0.001,inactive: 0.009,inactive: 0.018
PRKAB1 (UniProt Q9Y478),inactive: 0.024,inactive: -0.022,inactive: 0.07,inactive: -0.223,inactive: -0.105,inactive: -0.034,inactive: -0.024,inactive: 0.05,inactive: -0.049,inactive: -0.063,inactive: 0.013,active: -0.252,inactive: 0.029,inactive: -0.063,inactive: -0.057,inactive: 0.069,inactive: 0.013,inactive: -0.013,,
PRMT3 (UniProt O60678),inactive: 0.026,inactive: -0.099,inactive: 0.008,inactive: -0.017,inactive: -0.005,inactive: 0.098,inactive: -0.122,inactive: -0.111,inactive: 0.013,inactive: 0.048,inactive: -0.067,inactive: -0.137,inactive: -0.002,inactive: -0.058,inactive: -0.156,inactive: 0.111,inactive: -0.037,inactive: -0.02,,
PRCP (UniProt P42785),inactive: 0.009,inactive: -0.038,inactive: -0.007,inactive: -0.055,inactive: -0.013,inactive: -0.074,inactive: 0.029,inactive: 0.065,inactive: -0.014,inactive: 0.019,inactive: 0.012,inactive: -0.078,inactive: -0.088,inactive: -0.037,inactive: 0.006,inactive: -0.037,inactive: -0.034,inactive: -0.096,,
PRMT5 (UniProt O14744),inactive: 0.034,inactive: -0.038,inactive: 0.017,inactive: -0.011,inactive: -0.04,inactive: 0.045,inactive: 0.029,inactive: 0.019,inactive: 0.003,inactive: -0.005,inactive: -0.035,inactive: -0.004,inactive: 0.057,inactive: -0.012,inactive: 0.045,inactive: -0.024,inactive: -0.04,inactive: 0.039,inactive: 0.167,inactive: -0.02
PPP1R14A (UniProt Q96A00),inactive: 0.016,inactive: 0.031,inactive: -0.028,inactive: -0.013,inactive: -0.041,inactive: 0.039,inactive: 0.012,inactive: -0.079,inactive: -0.057,inactive: 0.017,inactive: 0.078,inactive: 0.011,inactive: 0.005,inactive: 0.003,inactive: 0.106,inactive: -0.049,inactive: -0.086,inactive: 0.319,,
PRKCG (UniProt P05129),inactive: -0.071,inactive: 0.019,inactive: 0.118,inactive: -0.011,inactive: -0.01,inactive: 0.098,inactive: -0.025,inactive: -0.17,inactive: 0.055,inactive: 0.113,inactive: 0.078,inactive: -0.005,inactive: 0.188,inactive: 0.028,inactive: -0.149,inactive: 0.11,inactive: -0.029,inactive: 0,,
PRPF31 (UniProt Q8WWY3),inactive: 0.07,inactive: 0.006,inactive: -0.028,inactive: -0.053,inactive: 0.081,inactive: -0.393,inactive: 0.003,inactive: 0.024,inactive: 0.061,inactive: 0.139,inactive: 0.041,inactive: 0.013,inactive: 0.181,inactive: 0.137,inactive: -0.044,inactive: 0.159,inactive: 0.069,inactive: -0.029,,
PRKCD (UniProt Q05655),inactive: -0.019,inactive: -0.004,inactive: 0.032,inactive: -0.017,inactive: 0.037,inactive: -0.003,inactive: -0.002,inactive: 0.074,inactive: 0.02,inactive: 0.026,inactive: 0.05,inactive: -0.008,inactive: 0.053,inactive: -0.215,inactive: -0.056,inactive: 0.007,inactive: 0.005,inactive: -0.007,,
PPP1R12A (UniProt O14974),inactive: 0.003,inactive: 0.064,inactive: 0.048,inactive: 0.041,inactive: 0.028,active: -0.658,inactive: 0.009,inactive: -0.006,inactive: 0.036,inactive: 0.005,inactive: -0.054,inactive: -0.351,inactive: -0.039,active: -0.885,inactive: 0.021,inactive: 0.029,inactive: -0.054,inactive: -0.1,,
PRKACA (UniProt P17612),inactive: 0.05,inactive: -0.076,inactive: -0.034,inactive: 0.006,inactive: -0.078,inactive: 0.088,inactive: -0.004,inactive: 0.028,inactive: 0.025,inactive: 0.068,inactive: 0.009,inactive: -0.088,inactive: 0.046,inactive: 0.043,inactive: -0.105,inactive: 0.112,inactive: 0.019,inactive: 0.053,,

# As a short view, part of the list above.
Target,log2 fold change [1],log2 fold change (filanesib),log2 fold change (zotarolimus),log2 fold change (idasanutlin),log2 fold change (alisertib),log2 fold change [2],log2 fold change (gefitinib),log2 fold change [3],log2 fold change (lapatinib),log2 fold change (pictilisib),log2 fold change [4],log2 fold change (crizotinib),log2 fold change [5],log2 fold change [6],log2 fold change (gandotinib),log2 fold change [7],log2 fold change (doramapimod),log2 fold change (ispinesib),log2 fold change (duvelisib),log2 fold change (tozasertib)
PRCP (UniProt P42785),inactive: 0.009,inactive: -0.038,inactive: -0.007,inactive: -0.055,inactive: -0.013,inactive: -0.074,inactive: 0.029,inactive: 0.065,inactive: -0.014,inactive: 0.019,inactive: 0.012,inactive: -0.078,inactive: -0.088,inactive: -0.037,inactive: 0.006,inactive: -0.037,inactive: -0.034,inactive: -0.096,,
PRMT5 (UniProt O14744),inactive: 0.034,inactive: -0.038,inactive: 0.017,inactive: -0.011,inactive: -0.04,inactive: 0.045,inactive: 0.029,inactive: 0.019,inactive: 0.003,inactive: -0.005,inactive: -0.035,inactive: -0.004,inactive: 0.057,inactive: -0.012,inactive: 0.045,inactive: -0.024,inactive: -0.04,inactive: 0.039,inactive: 0.167,inactive: -0.02
